Assay results reported in article PMC12238565.
Numbering of substitutions follows the chain as printed. Names may count otherwise. These are yes or no findings as the source states them, for the method shown. Binding seen in cells or lysates may run through a third protein. Some results given as binding are weak or reduced against the parent protein; the word gives no strength. Tags and fused reporters may be left off the sequences shown. One block for each binder: values may come before it.

Biological target: T1, msGFP2-Pex19 (S. cerevisiae) (UniProt Q07418)
T1 sequence: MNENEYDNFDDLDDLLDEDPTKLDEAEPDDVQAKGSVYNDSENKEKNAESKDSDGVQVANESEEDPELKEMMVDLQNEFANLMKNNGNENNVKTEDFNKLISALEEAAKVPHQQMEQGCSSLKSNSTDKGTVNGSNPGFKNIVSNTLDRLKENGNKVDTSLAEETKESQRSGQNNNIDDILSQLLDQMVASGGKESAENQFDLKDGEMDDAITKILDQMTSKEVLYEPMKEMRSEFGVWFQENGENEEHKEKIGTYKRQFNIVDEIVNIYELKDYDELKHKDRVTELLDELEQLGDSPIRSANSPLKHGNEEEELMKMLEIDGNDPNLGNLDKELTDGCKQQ
Assay: co-IP; GFP-Trap agarose beads on yeast lysate (50 mM HEPES pH 7.4, 150 mM NaCl, 10% glycerol, 1% CHAPS), 15 min at 4 °C; msGFP2-Pex19 as bait; Western blot against the Alfa tag and GFP

- binding: binds
B1: Pex3-mKate2-AlfaTag (protein, UniProt P28795 1-441)
chain: MAPNQRSRSLLQRHRGKVLISLTGIAALFTTGSVVVFFVKRWLYKQQLRITEQHFIKEQIKRRFEQTQEDSLYTIYELLPVWRMVLNENDLNLDSIVTQLKDQKNQLTRAKSSESRESSPLKSKAELWNELELKSLIKLVTVTYTVSSLILLTRLQLNILTRNEYLDSAIKLTMQQENCNKLQNRFYNWVTSWWSDPEDKADDAMVMAAKKSKKEGQEVYINEQAFLSLSWWILNKGWLSYNEIITNQIEIEFDGIHPRDTLTLEEFSSRLTNIFRNTNSQIFQQNNNNLTSILLPKDSSGQEFLLSQTLDADALTSFHSNTLVFNQLVNELTQCIESTATSIVLESLINESFHFIMNKVGIKTIAKKKPGQEDQQQYQMAVFAMSMKDCCQEMLQTTAGSSHSGSVNEYLATLDSVQPLDDLSASVYSNFGVSSSFSFKP

- binding: no binding
B2: Pex3(W128K, L131K)-mKate2-AlfaTag (protein, UniProt P28795 1-441)
chain: B1 chain with W128K, L131K
